PubChem BioAssay AID1259405 | NCATS – 2018

- Test: 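Mouse-designed siRNAs used to find CHO productivity engineering targets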 (primary screen)
- System: Chinese hamster CHO-K1 ovary cells with stable secreted eGFP expression
- Knock-down reagent: single siRNA against mouse genes, 0.8 pmol siRNA per well (2 µl of 400 nM stock)
- Timing: 3 days
- Measurement: 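Percent of the per-plate non-targeting control median for intracellular GFP per well by laser scanning cytometry and for cell viability by ATP luminescence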
- Direction: GFP, % of control: higher = more GFP per well, higher productivity
- Active means: 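a knock-down is called active if GFP reaches 120% or more of non-targeting control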
The deposit covers about 50,000 reagents; this is an unselected part. About 4,000 of all reagents (8%) were called active. 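Mouse siRNA library applied to hamster cells; one well for each siRNA.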 A number with no mark means an inactive call. The numbers tell different reagents against one gene apart. Not all columns of the deposit are shown. Reagent sequences are not shown.

GFP, % of control, by gene symbol and reagent
Sstr1 (GeneID 20605): #1 81.2; #2 150 (active); #3 115
Skint11 (GeneID 230623): #1 69.2; #2 72.1; #3 76.2
Evi5 (GeneID 14020): #1 48.9; #2 68.2; #3 48.3
Ulk1 (GeneID 22241): #1 121 (active); #2 65.4; #3 59.7
Slc17a3 (GeneID 105355): #1 88.3; #2 64; #3 47
Pth (GeneID 19226): #1 56.4; #2 38.1; #3 69
Zfp597 (GeneID 71063): #1 61.5; #2 86.2; #3 75.7
Pip5k1b (GeneID 18719): #1 70.3; #2 59.8; #3 80.9
Arhgap5 (GeneID 11855): #1 119; #2 73.4; #3 61.3
Or5l14 (GeneID 258846): #1 91.9; #2 53.8; #3 84.3
Ntng1 (GeneID 80883): #1 42.2; #2 95.6; #3 79.1
Trib2 (GeneID 217410): #1 95.6; #2 59.2; #3 102
Cyfip2 (GeneID 76884): #1 78.9; #2 72.5; #3 60.4
Ppif (GeneID 105675): #1 25.5; #2 78; #3 96
Fabp12 (GeneID 75497): #1 103; #2 73.1; #3 44.1
Scpep1 (GeneID 74617): #1 94.9; #2 60.6; #3 146 (active)
Dmxl2 (GeneID 235380): #1 63.9; #2 24.8; #3 73.6
Vegfc (GeneID 22341): #1 136 (active); #2 128 (active); #3 150 (active)
Dpy30 (GeneID 66310): #1 78.6; #2 83.5; #3 94.3
Ppan (GeneID 235036): #1 77.5; #2 96.3
Stx8 (GeneID 55943): #1 126 (active); #2 95.7
Psmb2 (GeneID 26445): #1 88.3; #2 15.7; #3 28.8
Cdk1 (GeneID 12534): #1 73.2
Fgfr1 (GeneID 14182): #1 66.2; #2 96.9; #3 62.7
Cox7b (GeneID 66142): #1 124 (active); #2 94.2
Eprs1 (GeneID 107508): #1 121 (active); #2 76.7; #3 79.9
Batf (GeneID 53314): #1 73.3; #2 29.5; #3 49.8
Ift172 (GeneID 67661): #1 61.2; #2 84.3; #3 68.2
Pxk (GeneID 218699): #1 94.7
Tmem45a (GeneID 56277): #1 116; #2 91; #3 109
Or6c3 (GeneID 258544): #1 101; #2 60.3; #3 78.1
Dnttip2 (GeneID 99480): #1 77; #2 55.2; #3 92.5
Serpina3m (GeneID 20717): #1 95; #2 60; #3 156 (active)
Cimip7 (GeneID 434439): #1 67.6; #2 54.9; #3 96.8
Kdm8 (GeneID 77035): #1 57.3; #2 46.1; #3 80
Bloc1s6 (GeneID 18457): #1 102; #2 87.8
2310022A10Rik (GeneID 66367): #1 109; #2 59.8; #3 99.7
Or12k8 (GeneID 258365): #1 72; #2 59.9; #3 94
E130006D01Rik (GeneID 269683): #1 65.5; #2 77.9; #3 77.8

Individual results from above:
Under “GFP, % of control”, Or6c3 (GeneID 258544) #1 reads 101
Batf (GeneID 53314) #2, GFP, % of control = 29.5
Value for Or12k8 (GeneID 258365) #1 in “GFP, % of control”: 72
Batf (GeneID 53314) #3, GFP, % of control: 49.8
Fgfr1 (GeneID 14182) #2, GFP, % of control = 96.9
Value for Or6c3 (GeneID 258544) #2 under “GFP, % of control”: 60.3
